The source of these data is PMC13002332.

Sequences of proteins named here, by UniProt entry; tags and fusion partners are left off.
UniProt Q9D4K7: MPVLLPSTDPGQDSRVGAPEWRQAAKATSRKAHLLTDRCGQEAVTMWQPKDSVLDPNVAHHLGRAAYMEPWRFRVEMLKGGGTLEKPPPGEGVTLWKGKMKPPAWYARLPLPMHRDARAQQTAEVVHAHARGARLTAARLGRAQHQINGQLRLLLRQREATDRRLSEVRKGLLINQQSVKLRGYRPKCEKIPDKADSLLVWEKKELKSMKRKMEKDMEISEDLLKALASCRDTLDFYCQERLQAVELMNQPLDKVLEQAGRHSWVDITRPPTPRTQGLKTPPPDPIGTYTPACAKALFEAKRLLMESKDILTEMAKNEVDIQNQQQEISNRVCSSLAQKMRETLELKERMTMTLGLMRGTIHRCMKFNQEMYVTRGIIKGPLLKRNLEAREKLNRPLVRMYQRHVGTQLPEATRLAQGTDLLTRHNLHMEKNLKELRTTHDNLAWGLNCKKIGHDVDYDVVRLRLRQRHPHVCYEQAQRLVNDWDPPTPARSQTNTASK

The assay concerns the target T1, 3×FLAG-CFAP77 expressed in HEK293T cells (mouse).
T1 sequence: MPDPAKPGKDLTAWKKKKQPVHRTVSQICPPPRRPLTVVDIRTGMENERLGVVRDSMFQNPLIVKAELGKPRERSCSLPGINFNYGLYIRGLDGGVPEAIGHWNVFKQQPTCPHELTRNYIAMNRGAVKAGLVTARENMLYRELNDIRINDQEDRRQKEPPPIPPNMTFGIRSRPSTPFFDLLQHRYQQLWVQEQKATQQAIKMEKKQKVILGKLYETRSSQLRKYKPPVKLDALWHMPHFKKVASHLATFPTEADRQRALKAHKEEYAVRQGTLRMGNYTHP
The experiment in a line: co-IP; HEK293T cells transfected with 3×FLAG-Cfap77 and HA-Tektl1; immunoprecipitation on Dynabeads, immunoblot. (Immunoblotting shows a protein as a band on a membrane.)

Results are given in words; binding and its absence hold for the method and conditions named. In cells and extracts the contact can be indirect. Some results given as binding are weak or reduced against the parent protein; the word gives no strength. Sequences can lack the tags named with a protein.

For “HA-TEKTL1 expressed in HEK293T cells (from UniProt Q9D4K7 1-499)”, the binding result is listed as “binds”.
